The whole screen tested about 400,000 compounds, of which about 5,500 (1.4%) were called active. Inconclusive results, whose numbers are uncertain, are shown with a selection of clear calls. The call rests on the fitted dose curve; in most records, active means well fitted cell-killing curve with a large enough effect; inconclusive means small, poorly fitted or top-dose-only effect, or effect the other way; inactive means flat fitted curve, though single readings scatter. A potency beside an inconclusive call is a rough fit, not a confirmed value.
assay: qHTS assay for MDR1-selective chemotherapeutics: Primary screen using the parental adenocarcinoma cell KB-3-1; conditions: KB-3-1 viability, CellTiter-Glo ATP luminescence, 72 h; activity change, negative = cytotoxic: at 46.1 µM (top of the series); further: nearly all actives have a fitted effect of over 60% in size
Summary of the method: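 KB-3-1 cells, DMEM (no phenol red) + 10% FBS; compound by pin transfer, 72 h, 37 °C. Readout: CellTiter-Glo luminescence after 10 min. Data normalized, curve-fitted.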
On the % scale 0 is the no-effect control and ±100 the full control effect; potency means the concentration at half of the fitted maximal effect.

SMILES | Potency | activity change, negative = cytotoxic
COc1ccc(Cn2c(=O)n(-c3ccccc3C)c(=O)c3c4c(sc32)CN(C(C)=O)CC4)cc1 | inconclusive: 29.1 µM [cytotoxic, single point] | 
CN(CCc1ccccc1)C1CCCN(S(=O)(=O)c2cccc(F)c2)C1 (stereo not drawn) | inconclusive: 0.517 µM [cytotoxic, full curve, poor fit] | 
CC1(C)Cc2c(C#N)c(N3CCN(C(=O)c4ccccc4Cl)CC3)nc(-c3ccco3)c2CS1 |  | inactive: -16.2%
Cc1cccc(C(=O)NNC2=CC(=O)CC(C)(C)C2)c1O |  | inactive: -0.0156%
CC1CCCN(Cc2nc(Cc3ccccc3Cl)no2)C1 (stereo not drawn) | inconclusive: 20.6 µM [rising, single point] | 
COc1ccc(-c2csc(NC(=O)CCS(=O)(=O)c3ccccc3)n2)c(OC)c1 | inconclusive: 29.1 µM [cytotoxic, single point] | 
COCCCNC(=O)c1ccc(Cn2c(=O)c3ccccc3n(CC(N)=O)c2=O)cc1 | inconclusive: 18.4 µM [cytotoxic, single point] | 
CN(C)c1nc(NCc2ccccc2)nc(SCC(N)=O)n1 |  | inactive: 27.9%
Fc1ccc(-c2nc3ccccc3[nH]2)cc1 | inconclusive: 0.0184 µM [cytotoxic, full curve, poor fit] | 
COc1ccc(-c2cc3nc(N)cc(=O)n3[nH]2)cc1 | inconclusive: 10.3 µM [cytotoxic, partial curve, poor fit] | 
CCN(C(=O)c1ccc2c(c1)N(Cc1cccc(Cl)c1)C(=O)c1ccccc1S2=O)c1ccccc1 (stereo not drawn) | inconclusive: 18.4 µM [cytotoxic, single point] | 
O=C(NCCCNc1ccnc2cc(Cl)ccc12)c1ccccc1F |  | inconclusive: -2.54%
Cc1c(NC(=O)COC(=O)C(c2ccc(Cl)cc2)C(C)C)c(=O)n(-c2ccccc2)n1C (stereo not drawn) | inconclusive: 29.1 µM [cytotoxic, single point] | 
COCCN1C(=O)CCC1(C)c1nnnn1-c1ccc2c(c1)OCCO2 (stereo not drawn) |  | inactive: 14.7%
Cc1csc2cc(-c3cccc([N+](=O)[O-])c3)c(-c3cccc([N+](=O)[O-])c3)c[n+]12 |  | inactive: 0.841%
CCOC(=O)NC1(NC(C)C)Oc2ccccc2O1 | inconclusive: 29.1 µM [cytotoxic, single point] | 
CC(C)c1ccc2oc(-c3ccc(Cl)c(NC(=O)c4cccs4)c3)nc2c1 | inconclusive: 29.1 µM [cytotoxic, single point] | 
Oc1[nH]c2ccc(Br)cc2c1N=NC(=S)Nc1ccc(F)cc1 | inconclusive: 14.6 µM [cytotoxic, partial curve] | 
CS(=O)(=O)N(Cc1ccccc1)c1ccc(C(=O)NCCSc2ccccn2)cc1 | inconclusive: 29.1 µM [rising, single point] | 
Cc1ccc(C(=O)Nc2ccc(F)cc2)cc1S(=O)(=O)N1CCCCCC1 | inconclusive: 29.1 µM [cytotoxic, single point] | 
CC(=O)Nc1ccc(Nc2ncnc3c2cnn3-c2ccccc2)cc1 | inconclusive: 2.06 µM [rising, partial curve, poor fit] | 
Cc1ccc(CN(Cc2cc3cccc(C)c3[nH]c2=O)C(=S)NCCCN(C)C)cc1 | inconclusive: 29.1 µM [cytotoxic, single point] | 
COc1ccc(-c2cc(NC=O)c3ncc(-c4cc(OC)c(OC)c(OC)c4)n3c2)c(OC)c1 | active: 1.3 µM | 

SMILES | Potency | activity change, negative = cytotoxic
Cc1nc2ccc(S(=O)(=O)Nc3ccccc3C)cc2s1 | inconclusive: 16.4 µM [cytotoxic, partial curve, poor fit] | 
O=[N+]([O-])c1cccc2ccc(/C=C/c3ccc(Cl)cc3)nc12 |  | inactive: -8.49%
COc1ccc(NC(=S)N(CCN2CCCCC2)Cc2ccco2)cc1 |  | inactive: -2.13%
Cc1cccc(C(O)c2ncc(-c3ccc(F)cc3)[nH]2)c1C (stereo not drawn) |  | inactive: -0.0121%
Cc1ccc([C@@H]2CC(=O)[C@@H]3CN(S(=O)(=O)c4ccccc4C)[C@H](c4ccc(Cl)cc4)C[C@@H]3N2S(=O)(=O)c2ccc(C)cc2)cc1 | active: 3.66 µM | 
O=C1C=C(c2ccc3ccccc3c2)C[C@@H](c2ccc(F)cc2)C1 | inconclusive: 29.1 µM [cytotoxic, single point] | 
COC(=O)c1ccc(C)c(NS(=O)(=O)c2ccc(OC)cc2)c1 | active: 0.731 µM | 
Cc1cc(=O)oc2c(C)c(OCC(=O)NCCc3ccc(S(N)(=O)=O)cc3)ccc12 | inconclusive: 29.1 µM [cytotoxic, partial curve, poor fit] | 
CC1=C(C(=O)N(C(C)C)C(C)C)CC(CC(=O)NC(c2ccccc2)c2ccccc2)C(=O)N1CCC1=CCCCC1 (stereo not drawn) | inconclusive: 29.1 µM [cytotoxic, single point] | 
COc1ccc(C2CC(c3ccccc3C(F)(F)F)=NN2c2ccc(S(N)(=O)=O)cc2)cc1 (stereo not drawn) | inconclusive: 29.1 µM [cytotoxic, single point] | 
CCOc1ccccc1C1NC(=O)CCC1[N+](=O)[O-] (stereo not drawn) |  | inactive: -7.65%
OCCC1CN(Cc2cc3c(cc2Cl)OCO3)CCN1C1CCCC1 (stereo not drawn) | inconclusive: 0.0065 µM [cytotoxic, full curve, poor fit] | 
CN(C)c1ccc(Nc2cc(Cl)ncn2)cc1 |  | inactive: -1.17%
CCCCCC(=O)N1CC2(CC(c3cccc(NC(=O)COc4ccc(Cl)cc4)c3)=NO2)C[C@@H]1C(N)=O (stereo partly drawn) | inconclusive: 32.6 µM [cytotoxic, single point] | 
Cc1ccc(CN2CCC[C@]3(N[C@H](c4ccc(C)cc4)[C@@H]4C(=O)N(Cc5ccccc5)C(=O)[C@@H]43)C2=O)cc1 | inconclusive: 18.4 µM [cytotoxic, partial curve] | 
O=P(CCCCCCCCCP(=O)(c1ccccc1)c1ccccc1)(c1ccccc1)c1ccccc1 | inconclusive: 16.4 µM [cytotoxic, single point] | 
COc1ccc(N(CC(=O)Nc2cccc(C)c2C)S(=O)(=O)c2c(C)n[nH]c2C)cc1 |  | inactive: 4.66%
N=c1oc2cc(O)ccc2cc1C(=O)Nc1ccc(Cl)cc1 | inconclusive: 29.1 µM [cytotoxic, single point] | 
Cc1cc(C)nc(/N=C(\N)Nc2ccc(F)c([N+](=O)[O-])c2)n1 | inconclusive: 23.1 µM [cytotoxic, partial curve, poor fit] | 
CC(OC(=O)C1CCCCC1)c1nc2ccccc2[nH]1 (stereo not drawn) |  | inactive: -9.46%
CCOc1ccccc1CN1[C@@H](c2ccc(OC)cc2)CC(C(=O)OC)(C(=O)OC)[C@H]1c1ccccc1 | inconclusive: 20.6 µM [cytotoxic, single point] | 
COc1ccc(CNC(=O)Cn2c(=O)n(CC(=O)N3CCCCC3)c(=O)c3sccc32)cc1 |  | inactive: 0.113%
CC1=C(C(=O)OCc2ccc3c(c2)OCO3)C(c2ccc(Cl)cc2)NC(=O)N1 (stereo not drawn) | inconclusive: 7.31 µM [cytotoxic, partial curve] | 

Rewritten in markdown: entries from further up

| SMILES | Potency | activity change, negative = cytotoxic |
| --- | --- | --- |
| COc1ccc(-c2cc(NC=O)c3ncc(-c4cc(OC)c(OC)c(OC)c4)n3c2)c(OC)c1 | active: 1.3 µM |  |
| Cc1nc2ccc(S(=O)(=O)Nc3ccccc3C)cc2s1 | inconclusive: 16.4 µM [cytotoxic, partial curve, poor fit] |  |
| O=[N+]([O-])c1cccc2ccc(/C=C/c3ccc(Cl)cc3)nc12 |  | inactive: -8.49% |
| COc1ccc(NC(=S)N(CCN2CCCCC2)Cc2ccco2)cc1 |  | inactive: -2.13% |
| Cc1cccc(C(O)c2ncc(-c3ccc(F)cc3)[nH]2)c1C (stereo not drawn) |  | inactive: -0.0121% |
| Cc1ccc([C@@H]2CC(=O)[C@@H]3CN(S(=O)(=O)c4ccccc4C)[C@H](c4ccc(Cl)cc4)C[C@@H]3N2S(=O)(=O)c2ccc(C)cc2)cc1 | active: 3.66 µM |  |
| O=C1C=C(c2ccc3ccccc3c2)C[C@@H](c2ccc(F)cc2)C1 | inconclusive: 29.1 µM [cytotoxic, single point] |  |
| COC(=O)c1ccc(C)c(NS(=O)(=O)c2ccc(OC)cc2)c1 | active: 0.731 µM |  |
| Cc1cc(=O)oc2c(C)c(OCC(=O)NCCc3ccc(S(N)(=O)=O)cc3)ccc12 | inconclusive: 29.1 µM [cytotoxic, partial curve, poor fit] |  |
| CC1=C(C(=O)N(C(C)C)C(C)C)CC(CC(=O)NC(c2ccccc2)c2ccccc2)C(=O)N1CCC1=CCCCC1 (stereo not drawn) | inconclusive: 29.1 µM [cytotoxic, single point] |  |
| COc1ccc(C2CC(c3ccccc3C(F)(F)F)=NN2c2ccc(S(N)(=O)=O)cc2)cc1 (stereo not drawn) | inconclusive: 29.1 µM [cytotoxic, single point] |  |
| CCOc1ccccc1C1NC(=O)CCC1[N+](=O)[O-] (stereo not drawn) |  | inactive: -7.65% |
| OCCC1CN(Cc2cc3c(cc2Cl)OCO3)CCN1C1CCCC1 (stereo not drawn) | inconclusive: 0.0065 µM [cytotoxic, full curve, poor fit] |  |
| CN(C)c1ccc(Nc2cc(Cl)ncn2)cc1 |  | inactive: -1.17% |
| CCCCCC(=O)N1CC2(CC(c3cccc(NC(=O)COc4ccc(Cl)cc4)c3)=NO2)C[C@@H]1C(N)=O (stereo partly drawn) | inconclusive: 32.6 µM [cytotoxic, single point] |  |
| Cc1ccc(CN2CCC[C@]3(N[C@H](c4ccc(C)cc4)[C@@H]4C(=O)N(Cc5ccccc5)C(=O)[C@@H]43)C2=O)cc1 | inconclusive: 18.4 µM [cytotoxic, partial curve] |  |
| O=P(CCCCCCCCCP(=O)(c1ccccc1)c1ccccc1)(c1ccccc1)c1ccccc1 | inconclusive: 16.4 µM [cytotoxic, single point] |  |
| COc1ccc(N(CC(=O)Nc2cccc(C)c2C)S(=O)(=O)c2c(C)n[nH]c2C)cc1 |  | inactive: 4.66% |
| N=c1oc2cc(O)ccc2cc1C(=O)Nc1ccc(Cl)cc1 | inconclusive: 29.1 µM [cytotoxic, single point] |  |
| Cc1cc(C)nc(/N=C(\N)Nc2ccc(F)c([N+](=O)[O-])c2)n1 | inconclusive: 23.1 µM [cytotoxic, partial curve, poor fit] |  |
| CC1=C(C(=O)OCc2ccc3c(c2)OCO3)C(c2ccc(Cl)cc2)NC(=O)N1 (stereo not drawn) | inconclusive: 7.31 µM [cytotoxic, partial curve] |  |

Continuation.

SMILES | Potency | activity change, negative = cytotoxic
Cc1ccc(C)c(NC(=O)CSc2nnc(-c3n[nH]c4ccccc34)o2)c1 | inconclusive: 1.64 µM [rising, full curve, poor fit] | 
COc1ccc(S(=O)(=O)N2CCN(C(=S)Nc3ccc(S(N)(=O)=O)cc3)CC2)cc1 |  | inactive: 8.71%
CCOc1cccc(CNCCCSc2ncccn2)c1 |  | inactive: 5.84%
CCc1cc(C(=O)NC2CCCc3c2cnn3-c2cccc(C)c2C)n(C)n1 (stereo not drawn) | inconclusive: 13 µM [cytotoxic, partial curve, poor fit] | 
CCN(CC)S(=O)(=O)c1cc(-c2nn(C)c(=O)c3ccccc23)ccc1C |  | inactive: -0.186%
CCOc1cccc(NC(=O)C2CC(=O)N(C)C(=Nc3cccc(OC)c3)S2)c1 (stereo not drawn) | inconclusive: 6.51 µM [cytotoxic, partial curve] | 
COc1ccc(C)cc1Nc1n[n+](-c2ccccc2)c(-c2c(OC)ccc3ccccc23)s1 | active: 18.4 µM | 
Cc1ccc2c(c1)c1c3n2CCN(CC(N)=O)C3CCC1 (stereo not drawn) | inconclusive: 29.1 µM [cytotoxic, single point] | 
CN(C)C(=O)c1cnc(-c2ccccc2)nc1-c1ccccc1 |  | inactive: 5.09%
Oc1ccc(Br)cc1-c1ccnn1-c1ccccc1 | inconclusive: 18.4 µM [cytotoxic, single point] | 
Cc1ccc(S(=O)(=O)N2c3ccccc3OCC2C(C)(C)C)cc1 (stereo not drawn) | inconclusive: 29.1 µM [cytotoxic, single point] | 
CC(=O)N1CCc2c(sc3c2c(=O)n(-c2ccccc2)c(=O)n3CC(=O)c2ccc(Cl)cc2)C1 |  | inactive: -4.4%
COc1ccccc1CNc1nc2cc(-c3ccsc3)sc2c(=O)n1C | inconclusive: 23.1 µM [cytotoxic, single point] | 
CCOC(=O)N(C)C[C@H]1OCc2cnnn2CCCC(=O)N([C@H](C)CO)C[C@H]1C |  | inactive: 13.3%
CCn1c(SCC(=O)N/N=C(\C)c2ccncc2)nnc1-c1ccccc1 | inconclusive: 29.1 µM [rising, single point] | 
CC1(C(=O)Nc2ccc3c(c2)OCO3)CCN1Cc1csc2ccccc12 (stereo not drawn) |  | inactive: -27.7%
O=C(CN1CCCc2ccccc21)N/N=C/c1ccc(O)cc1O |  | inactive: -4.17%
O=C(CNc1cccc(C(F)(F)F)c1)Nc1cccc(S(=O)(=O)N2CCCC2)c1 | inconclusive: 23.1 µM [cytotoxic, single point] | 
Nc1nonc1-n1nnc(C(=O)N/N=C/c2ccccc2Cl)c1-c1ccccc1 |  | inactive: 5.51%
O=C(Nc1c(C(=O)c2ccccc2)oc2ccccc12)c1cc(-c2ccccc2O)n[nH]1 | inconclusive: 29.1 µM [cytotoxic, single point] | 
COc1ccc(-c2ccc3ncnc(NCc4cccs4)c3c2)cc1 | inconclusive: 18.4 µM [cytotoxic, single point] | 
O=C(Nc1nnc(C2CC2)s1)C1Cc2ccccc2CN1S(=O)(=O)c1cccs1 (stereo not drawn) |  | inactive: -4.83%

— PubChem BioAssay AID1347075 (National Center for Advancing Translational Sciences (NCATS), 2019)
